# These are yes or no findings as the source states them, for the method shown. In cells and extracts the contact can be indirect. Binding calls can cover weak binding; strength is not graded here.
# Molecular target: GST-Ataxin-1[82Q] with S776A mutation (human)
# Assay: pull-down; GST co-affinity purification (co-AP): lysates of HEK293T cells transfected with the GST-Ataxin-1 construct and Ataxin-2 run through glutathione conjugated beads; blots stained with anti-GST, anti-Myc or for dAtx2
binder,measurement,value
"Drosophila Ataxin-2 (dAtx2) (protein, UniProt Q8SWR8 1-1084) MNNNSKRKTRPTGGGASGGISRYNSNDNSLRPTNNKAGAGGGNGGAAVRPSAQGVYNNTFFMHSATALVGSVVEVRLRSGNIYEGVFRTFSGNFDIALELPACIKSKNLPEEGKVPKHIIFPADTVVTIVAKDFDSQYATAGAFQTDGAISDKCNGARPDEKELEPWDSGANGDIDIELDSAANGWDPNEMFRKNENTFGVTSTFDDSLASYTVPLDKGDSLEFKEAEAKAEKLAAEIENNPTCRDRLDLENGDEEALFAAVERPSTEQDQRGDRGDRERNDRDREREERDRDRDRDRGNKPRGAGDFQLRETMSSDRYITKQTRSITGPQLSHVGMSSQGSGRDRDTRGDGSMMMQSGGGSGQGGSTQSTAALMLAGGLKGVGPAPSANASADSSSKYSGGSMVKRKTVPQGGKVMRNNVPTGGSNVSVSQGGNGNSVGQNKGGYQPSMGMPSQYSYQGNSQIMHGSSQYRNQSHMGGANKLNGDSNANTNKPLPQRQMRQYQGSQSNSSLNYGGEPQSLGKPVHGSHGGHPGQNSNSPPLQTAGPQQQQQQQQQQQQQQQQQQPPQQQQHQNIQPQGQNTQPARQVRTRDNQMQELRQFGQDFQLAPSNTSPPQQQQQQQQQQQQHQVQQQQQRALQQSASPPQQQQQQQQQQQHVVLHQVPQTHLHQAALSQPHYVPQQQPQQAPLPQQQHVPHHMQQKAQQQQLVETQHQHVQKQHQSQPQVQQPPPQLLQDPSQQPLPIYHTMPPPQTSPVVVTSPVLLEQPPPQPMPVVQQQQTQQLATPKPEVSPAPPSSNTTTPTGIASTPTAGVIASAGSEKTTPAAPTPTSNSATVPTGTAATAGGATGTTPVVKKHVLNPSAKPFTPRGPSTPNPSRPHTPQTPVPMTNIYTTTGGHVPPAANQPIYVMQPQHPFPPQTHPQAGQPPRLRRSNYPPMAASQMHVSASAATGQPLITAGPIPQFIQYGHAPHQQQFQSHTYAPMQMRVYPDQPQQLQFMTQTPQSTTPSPGQPHQQFHPPPQPSPAGGGPQPAFTPPTQAATYQLMCVHPQSLLANHYFPPPTPQHPQQNQQQYQIVMQQHQPQ",binding,binds
